The text below walks through data of US20080279874A1.

Protein sequences, listed by entry. Tags and fused reporters are not part of them. Lines headed by an entry give the natural chain unless they say otherwise; changes in a name come on top.
UniProt P53350: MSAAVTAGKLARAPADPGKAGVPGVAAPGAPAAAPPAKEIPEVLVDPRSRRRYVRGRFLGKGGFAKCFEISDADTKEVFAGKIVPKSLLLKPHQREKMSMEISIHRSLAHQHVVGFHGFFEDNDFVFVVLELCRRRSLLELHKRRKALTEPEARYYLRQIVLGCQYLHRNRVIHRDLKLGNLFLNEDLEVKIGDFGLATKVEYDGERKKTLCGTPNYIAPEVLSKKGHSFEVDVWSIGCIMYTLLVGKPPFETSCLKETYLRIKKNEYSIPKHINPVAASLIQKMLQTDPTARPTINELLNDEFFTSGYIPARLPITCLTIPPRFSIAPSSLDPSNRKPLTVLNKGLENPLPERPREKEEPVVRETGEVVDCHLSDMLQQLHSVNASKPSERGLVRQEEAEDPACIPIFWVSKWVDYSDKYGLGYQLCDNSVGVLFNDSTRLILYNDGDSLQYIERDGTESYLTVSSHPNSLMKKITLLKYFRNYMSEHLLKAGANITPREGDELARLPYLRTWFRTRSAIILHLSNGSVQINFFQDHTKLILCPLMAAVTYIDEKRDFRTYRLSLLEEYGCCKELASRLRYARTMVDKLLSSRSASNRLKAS

Results are given in words; binding and its absence hold for the method and conditions named. In cells and extracts the contact can be indirect. Some results given as binding are weak or reduced against the parent protein; the word gives no strength. Where a sequence is shown, tags or fusion partners need not be part of it.

The target of this assay is T1, V5-tagged CENPB expressed in H1299 cells (human) (UniProt P07199).
T1 sequence: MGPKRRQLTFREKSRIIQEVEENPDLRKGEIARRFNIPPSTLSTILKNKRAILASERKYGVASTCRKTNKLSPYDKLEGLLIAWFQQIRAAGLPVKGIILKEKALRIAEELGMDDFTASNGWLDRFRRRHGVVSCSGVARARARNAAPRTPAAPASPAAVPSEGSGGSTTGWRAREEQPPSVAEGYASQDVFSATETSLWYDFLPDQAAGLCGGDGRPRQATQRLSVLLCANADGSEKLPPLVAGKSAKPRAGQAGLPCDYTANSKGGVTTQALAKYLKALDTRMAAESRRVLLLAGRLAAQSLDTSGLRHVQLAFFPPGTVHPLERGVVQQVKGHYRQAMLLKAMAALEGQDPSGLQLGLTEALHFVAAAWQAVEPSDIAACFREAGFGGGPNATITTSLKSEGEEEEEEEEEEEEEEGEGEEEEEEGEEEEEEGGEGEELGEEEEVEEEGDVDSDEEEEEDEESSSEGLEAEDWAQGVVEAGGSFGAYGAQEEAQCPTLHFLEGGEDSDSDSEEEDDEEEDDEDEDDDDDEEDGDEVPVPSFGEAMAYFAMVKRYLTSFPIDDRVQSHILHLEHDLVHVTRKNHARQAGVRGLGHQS
Description: co-immunoprecipitation with anti-Plk1 antibodies from transfected H1299 cells, immunoblot for CENPB. A general note: In western blotting, separated proteins are transferred to a membrane and probed.

Consider “His-tagged Plk1 expressed in H1299 cells (from UniProt P53350 1-603) (enzyme)”, for which the binding entry is reported as “binds”.
